From US20220324970A1
These are yes or no findings as the source states them, for the method shown. Some results given as binding are weak or reduced against the parent protein; the word gives no strength.

How the values were obtained:
[1] = molecular target: recombinant dimeric IgA2 construct; experiment: BLI: mpIgR alone binding to immobilized IgA
[2] = molecular target: recombinant dimeric IgA2 construct; experiment: BLI: mpIgR pre-complexed with VHH2 binding to immobilized IgA

B1: mouse pIgR extracellular domain (ECD) (receptor)
chain: KSPIFGPQEVSSIEGDSVSITCYYPDTSVNRHTRKYWCRQGASGMCTTLISSNGYLSKEYSGRANLINFPENNTFVINIEQLTQDDTGSYKCGLGTSNRGLSFDVSLEVSQVPELPSDTHVYTKDIGRNVTIECPFKRENAPSKKSLCKKTNQSCELVIDSTEKVNPSYIGRAKLFMKGTDLTVFYVNISHLTHNDAGLYICQAGEGPSADKKNVDLQVLAPEPELLYKDLRSSVTFECDLGREVANEAKYLCRMNKETCDVIINTLGKRDPDFEGRILITPKDDNGRFSVLITGLRKEDAGHYQCGAHSSGLPQEGWPIQTWQLFVNEESTIPNRRSVVKGVTGGSVAIACPYNPKESSSLKYWCRWEGDGNGHCPVLVGTQAQVQEEYEGRLALFDQPGNGTYTVILNQLTTEDAGFYWCLTNGDSRWRTTIELQVAEATREPNLEVTPQNATAVLGETFTVSCHYPCKFYSQEKYWCKWSNKGCHILPSHDEGARQSSVSCDQSSQLVSMTLNPVSKEDEGWYWCGVKQGQTYGETTAIYIAVEERTRGSSHVNPTDANARAKVALEEEVVDSSISEKENKAIPNPGPFANEREIQNVGDQAQENRASGDAGSADGQSRSSSSKHHHHHH
In the case of B1, the binding [1] is reported as “binds” and the binding [2] is reported as “binds”.
